# According to the supplement of paper PMC10849652:
# The chains behind the UniProt entries cited, without tags or fusion partners. Where a name states a change or a piece, a line headed by the entry shows the natural chain unless it says otherwise.
# UniProt Q86T24: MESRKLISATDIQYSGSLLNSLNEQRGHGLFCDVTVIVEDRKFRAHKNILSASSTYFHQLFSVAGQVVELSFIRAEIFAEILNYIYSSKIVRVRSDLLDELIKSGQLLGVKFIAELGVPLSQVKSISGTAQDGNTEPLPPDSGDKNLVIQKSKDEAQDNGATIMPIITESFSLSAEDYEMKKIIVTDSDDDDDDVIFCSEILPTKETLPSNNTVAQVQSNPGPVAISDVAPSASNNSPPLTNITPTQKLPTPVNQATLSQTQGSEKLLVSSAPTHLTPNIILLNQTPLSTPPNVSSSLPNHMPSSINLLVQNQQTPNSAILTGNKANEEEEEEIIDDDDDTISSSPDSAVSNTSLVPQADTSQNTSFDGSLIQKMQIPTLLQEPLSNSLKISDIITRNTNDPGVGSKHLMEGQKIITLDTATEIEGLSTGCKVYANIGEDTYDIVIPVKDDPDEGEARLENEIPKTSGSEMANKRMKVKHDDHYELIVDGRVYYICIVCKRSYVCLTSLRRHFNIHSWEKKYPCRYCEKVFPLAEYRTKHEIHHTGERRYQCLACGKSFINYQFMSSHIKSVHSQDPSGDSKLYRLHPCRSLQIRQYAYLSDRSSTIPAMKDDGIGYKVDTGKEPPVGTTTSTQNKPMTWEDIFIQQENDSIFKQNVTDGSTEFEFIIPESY
# UniProt Q96QU8: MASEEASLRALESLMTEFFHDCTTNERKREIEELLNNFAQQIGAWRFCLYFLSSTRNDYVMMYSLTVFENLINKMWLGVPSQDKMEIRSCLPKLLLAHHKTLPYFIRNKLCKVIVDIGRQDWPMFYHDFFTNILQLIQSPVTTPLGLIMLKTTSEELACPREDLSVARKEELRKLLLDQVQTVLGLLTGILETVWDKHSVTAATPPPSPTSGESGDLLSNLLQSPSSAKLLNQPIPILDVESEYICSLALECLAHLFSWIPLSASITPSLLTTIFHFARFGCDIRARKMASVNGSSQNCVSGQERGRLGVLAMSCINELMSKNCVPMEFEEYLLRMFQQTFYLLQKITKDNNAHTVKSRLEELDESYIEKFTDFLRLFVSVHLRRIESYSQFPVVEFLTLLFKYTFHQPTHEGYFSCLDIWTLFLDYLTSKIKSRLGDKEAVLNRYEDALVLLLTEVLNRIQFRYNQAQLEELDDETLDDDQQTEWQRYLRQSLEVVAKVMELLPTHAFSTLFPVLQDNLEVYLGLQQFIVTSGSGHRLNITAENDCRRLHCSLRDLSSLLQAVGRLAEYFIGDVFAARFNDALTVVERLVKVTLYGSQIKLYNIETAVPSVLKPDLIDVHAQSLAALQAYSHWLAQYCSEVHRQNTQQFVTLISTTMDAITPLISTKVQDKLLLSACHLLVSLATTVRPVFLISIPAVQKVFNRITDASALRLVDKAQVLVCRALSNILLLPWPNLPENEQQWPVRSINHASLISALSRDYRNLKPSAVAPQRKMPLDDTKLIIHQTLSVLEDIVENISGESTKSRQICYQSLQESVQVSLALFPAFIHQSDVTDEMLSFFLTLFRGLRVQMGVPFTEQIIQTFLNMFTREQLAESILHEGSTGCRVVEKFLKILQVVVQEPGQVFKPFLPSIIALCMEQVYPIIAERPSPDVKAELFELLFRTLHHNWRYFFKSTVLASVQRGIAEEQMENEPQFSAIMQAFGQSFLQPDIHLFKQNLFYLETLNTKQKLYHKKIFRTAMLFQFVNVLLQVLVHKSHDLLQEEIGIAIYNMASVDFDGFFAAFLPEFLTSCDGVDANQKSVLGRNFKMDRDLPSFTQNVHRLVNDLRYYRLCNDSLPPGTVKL
# UniProt Q86U90: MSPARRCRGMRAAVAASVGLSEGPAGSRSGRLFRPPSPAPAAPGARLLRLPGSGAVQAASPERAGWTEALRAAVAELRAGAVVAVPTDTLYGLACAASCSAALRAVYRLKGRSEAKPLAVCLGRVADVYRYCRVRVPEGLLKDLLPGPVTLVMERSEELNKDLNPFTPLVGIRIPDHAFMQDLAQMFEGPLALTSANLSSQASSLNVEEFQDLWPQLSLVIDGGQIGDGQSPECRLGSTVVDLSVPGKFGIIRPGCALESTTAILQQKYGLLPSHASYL
# UniProt Q7Z2W4: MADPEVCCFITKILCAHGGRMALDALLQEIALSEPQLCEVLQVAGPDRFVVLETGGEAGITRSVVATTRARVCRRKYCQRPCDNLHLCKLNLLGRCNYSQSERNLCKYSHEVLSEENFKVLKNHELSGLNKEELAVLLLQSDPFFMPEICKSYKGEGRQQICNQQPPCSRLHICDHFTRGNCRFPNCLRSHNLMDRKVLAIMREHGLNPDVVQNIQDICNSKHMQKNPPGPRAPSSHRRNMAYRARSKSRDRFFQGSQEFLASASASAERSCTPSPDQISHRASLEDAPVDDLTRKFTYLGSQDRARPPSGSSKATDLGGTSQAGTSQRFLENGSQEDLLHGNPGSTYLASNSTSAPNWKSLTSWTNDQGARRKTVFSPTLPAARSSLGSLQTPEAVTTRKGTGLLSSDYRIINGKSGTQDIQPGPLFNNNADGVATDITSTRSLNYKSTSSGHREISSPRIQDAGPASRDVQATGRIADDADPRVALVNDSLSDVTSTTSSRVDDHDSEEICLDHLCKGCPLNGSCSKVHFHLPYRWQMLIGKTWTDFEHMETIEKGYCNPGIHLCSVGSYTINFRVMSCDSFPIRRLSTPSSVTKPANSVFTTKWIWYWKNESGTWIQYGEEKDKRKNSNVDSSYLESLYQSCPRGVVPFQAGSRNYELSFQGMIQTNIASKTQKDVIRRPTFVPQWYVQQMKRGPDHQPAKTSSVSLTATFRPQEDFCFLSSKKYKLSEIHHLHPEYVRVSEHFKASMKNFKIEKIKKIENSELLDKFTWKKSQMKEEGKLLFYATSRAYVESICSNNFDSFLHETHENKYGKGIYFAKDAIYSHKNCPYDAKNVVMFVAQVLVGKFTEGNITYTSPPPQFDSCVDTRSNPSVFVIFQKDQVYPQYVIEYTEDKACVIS
# UniProt P67809, whole entry, looked up: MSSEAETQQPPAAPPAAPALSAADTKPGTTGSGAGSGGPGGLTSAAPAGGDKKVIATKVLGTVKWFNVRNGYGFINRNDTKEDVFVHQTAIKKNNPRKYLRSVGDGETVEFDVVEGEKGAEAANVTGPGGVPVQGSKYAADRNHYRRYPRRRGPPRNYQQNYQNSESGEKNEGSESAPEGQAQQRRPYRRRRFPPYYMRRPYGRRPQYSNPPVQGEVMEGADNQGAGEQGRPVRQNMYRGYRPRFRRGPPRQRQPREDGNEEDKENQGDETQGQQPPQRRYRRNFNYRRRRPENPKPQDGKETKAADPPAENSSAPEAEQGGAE
# UniProt Q9BYJ9: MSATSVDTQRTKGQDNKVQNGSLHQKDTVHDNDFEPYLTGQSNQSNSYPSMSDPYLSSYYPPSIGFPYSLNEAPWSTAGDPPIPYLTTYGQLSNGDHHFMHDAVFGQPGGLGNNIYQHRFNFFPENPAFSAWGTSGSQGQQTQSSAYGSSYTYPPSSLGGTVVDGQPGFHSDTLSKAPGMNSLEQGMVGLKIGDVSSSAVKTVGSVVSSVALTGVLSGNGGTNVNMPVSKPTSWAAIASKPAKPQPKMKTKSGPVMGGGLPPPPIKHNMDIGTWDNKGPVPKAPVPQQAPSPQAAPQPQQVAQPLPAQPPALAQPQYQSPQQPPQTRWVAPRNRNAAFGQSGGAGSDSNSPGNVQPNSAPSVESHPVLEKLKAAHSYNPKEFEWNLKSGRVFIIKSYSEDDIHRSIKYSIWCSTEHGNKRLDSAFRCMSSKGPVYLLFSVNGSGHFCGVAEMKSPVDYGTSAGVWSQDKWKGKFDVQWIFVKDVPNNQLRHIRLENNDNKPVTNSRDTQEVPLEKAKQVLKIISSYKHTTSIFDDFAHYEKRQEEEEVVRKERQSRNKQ
# UniProt Q5BJH7: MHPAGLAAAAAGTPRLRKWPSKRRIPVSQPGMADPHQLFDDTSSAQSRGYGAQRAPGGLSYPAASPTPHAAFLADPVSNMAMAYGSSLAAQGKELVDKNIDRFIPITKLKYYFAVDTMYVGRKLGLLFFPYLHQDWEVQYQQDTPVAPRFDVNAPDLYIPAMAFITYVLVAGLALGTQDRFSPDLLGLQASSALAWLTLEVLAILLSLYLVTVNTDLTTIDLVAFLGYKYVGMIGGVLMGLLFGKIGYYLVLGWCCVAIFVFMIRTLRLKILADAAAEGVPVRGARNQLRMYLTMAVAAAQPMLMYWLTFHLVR
# UniProt O60293: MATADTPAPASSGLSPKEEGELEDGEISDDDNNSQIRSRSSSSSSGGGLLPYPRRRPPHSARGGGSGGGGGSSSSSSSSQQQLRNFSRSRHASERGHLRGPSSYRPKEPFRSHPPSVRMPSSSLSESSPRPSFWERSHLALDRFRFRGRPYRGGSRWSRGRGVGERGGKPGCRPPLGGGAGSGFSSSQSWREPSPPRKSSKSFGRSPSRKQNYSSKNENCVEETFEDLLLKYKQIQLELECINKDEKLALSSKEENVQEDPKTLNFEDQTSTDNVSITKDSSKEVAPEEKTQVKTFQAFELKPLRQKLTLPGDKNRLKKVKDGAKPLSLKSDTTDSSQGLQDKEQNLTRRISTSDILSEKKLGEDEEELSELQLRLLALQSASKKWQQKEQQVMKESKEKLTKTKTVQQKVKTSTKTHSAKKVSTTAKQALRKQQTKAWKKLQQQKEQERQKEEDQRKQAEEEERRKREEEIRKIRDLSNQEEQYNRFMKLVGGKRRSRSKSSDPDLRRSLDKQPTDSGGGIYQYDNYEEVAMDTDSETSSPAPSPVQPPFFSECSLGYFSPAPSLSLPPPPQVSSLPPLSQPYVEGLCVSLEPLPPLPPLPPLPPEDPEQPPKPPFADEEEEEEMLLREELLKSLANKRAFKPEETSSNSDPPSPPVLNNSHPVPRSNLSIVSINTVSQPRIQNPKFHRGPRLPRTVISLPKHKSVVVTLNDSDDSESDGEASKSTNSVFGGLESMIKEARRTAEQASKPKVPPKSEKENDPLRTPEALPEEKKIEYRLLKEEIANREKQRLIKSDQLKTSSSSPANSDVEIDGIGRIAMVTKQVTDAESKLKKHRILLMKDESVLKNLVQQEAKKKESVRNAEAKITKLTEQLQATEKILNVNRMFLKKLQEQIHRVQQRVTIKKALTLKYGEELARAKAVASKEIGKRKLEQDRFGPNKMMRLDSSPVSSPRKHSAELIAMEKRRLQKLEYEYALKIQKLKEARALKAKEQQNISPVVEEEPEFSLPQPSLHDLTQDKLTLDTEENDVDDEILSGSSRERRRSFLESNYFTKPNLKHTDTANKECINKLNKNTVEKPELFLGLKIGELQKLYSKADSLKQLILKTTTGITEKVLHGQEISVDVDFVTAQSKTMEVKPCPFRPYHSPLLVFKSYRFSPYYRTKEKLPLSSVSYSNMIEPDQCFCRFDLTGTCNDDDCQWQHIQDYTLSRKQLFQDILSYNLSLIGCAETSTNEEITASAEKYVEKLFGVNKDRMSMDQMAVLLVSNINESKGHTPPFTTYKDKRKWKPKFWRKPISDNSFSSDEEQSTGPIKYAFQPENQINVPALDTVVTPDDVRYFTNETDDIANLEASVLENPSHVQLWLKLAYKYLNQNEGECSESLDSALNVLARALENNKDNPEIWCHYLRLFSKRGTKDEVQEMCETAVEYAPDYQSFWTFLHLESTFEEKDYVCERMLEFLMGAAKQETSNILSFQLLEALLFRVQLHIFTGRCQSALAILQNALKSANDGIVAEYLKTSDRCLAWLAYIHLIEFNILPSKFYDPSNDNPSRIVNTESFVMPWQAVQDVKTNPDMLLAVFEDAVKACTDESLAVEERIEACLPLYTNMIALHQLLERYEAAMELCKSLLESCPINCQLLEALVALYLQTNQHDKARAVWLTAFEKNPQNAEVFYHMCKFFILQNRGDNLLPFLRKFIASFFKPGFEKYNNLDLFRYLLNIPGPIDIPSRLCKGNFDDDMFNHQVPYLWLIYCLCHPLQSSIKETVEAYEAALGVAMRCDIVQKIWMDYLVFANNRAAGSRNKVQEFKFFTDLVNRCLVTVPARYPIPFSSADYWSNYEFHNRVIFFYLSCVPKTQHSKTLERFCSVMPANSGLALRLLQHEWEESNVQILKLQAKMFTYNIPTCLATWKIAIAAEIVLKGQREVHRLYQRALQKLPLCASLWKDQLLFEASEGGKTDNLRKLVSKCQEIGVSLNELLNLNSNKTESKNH
# UniProt Q8NBI6: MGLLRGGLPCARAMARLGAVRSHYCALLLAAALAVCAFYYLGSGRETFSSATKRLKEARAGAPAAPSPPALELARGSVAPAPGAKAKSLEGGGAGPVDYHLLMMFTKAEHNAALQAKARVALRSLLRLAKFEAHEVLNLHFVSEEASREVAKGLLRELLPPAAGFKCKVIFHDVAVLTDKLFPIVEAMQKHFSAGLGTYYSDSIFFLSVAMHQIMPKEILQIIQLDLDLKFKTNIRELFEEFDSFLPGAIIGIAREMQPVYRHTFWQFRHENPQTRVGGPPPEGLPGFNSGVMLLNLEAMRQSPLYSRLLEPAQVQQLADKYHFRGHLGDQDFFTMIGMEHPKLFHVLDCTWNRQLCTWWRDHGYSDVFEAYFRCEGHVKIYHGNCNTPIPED
# The other results are listed elsewhere or left out.
# Compound: C=CC(=O)N1CCC[C@@H](n2nc(-c3ccc(Oc4ccccc4)cc3)c3c(N)ncnc32)C1 [ibrutinib]
# Test: log2 fold change, soluble protein after heating vs DMSO (PISA); higher = thermal stabilisation; K562 lysate, 10 uM; active = over 0.2 and 3.5 SD of the protein, either way, in both replicates (recomputed)
# Outline: (§1)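 Following dounce homogenisation of K562 pellets in PBS pH 7.4 with 1 mM MgCl2, crude extract at 1 mg/mL protein was incubated for 30 min with 10 μM compound. Aliquots were then heated for 3 min over 48°C-58°C and pooled, NP-40 was added to 0.5% at 4°C, and soluble protein was recovered as the supernatant at 21,000xg for 90 min. Channel-sum-equalised TMTpro 16plex LC-MS/MS quantified this protein. Each value, from duplicates, is a log-two fold change in thermal stability relative to solvent controls.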
row,Target,log2 fold change
1,YARS2 (UniProt Q9Y2Z4),inactive: -0.01
2,XPO7 (UniProt Q9UIA9),inactive: 0.001
3,ZBTB33 (UniProt Q86T24),inactive: 0.258
4,XPO6 (UniProt Q96QU8),inactive: -0.013
5,YRDC (UniProt Q86U90),inactive: 0.01
6,YARS (UniProt P54577),inactive: -0.017
7,ZFPL1 (UniProt O95159),inactive: 0.103
8,ZC3HAV1 (UniProt Q7Z2W4),inactive: 0.03
9,YBX1 (UniProt P67809),inactive: 0.034
10,ZBTB21 (UniProt Q9ULJ3),inactive: 0.079
11,XYLB (UniProt O75191),inactive: 0.045
12,YTHDF1 (UniProt Q9BYJ9),inactive: -0.029
13,YIF1B (UniProt Q5BJH7),inactive: 0.026
14,ZFC3H1 (UniProt O60293),inactive: -0.019
15,XXYLT1 (UniProt Q8NBI6),inactive: -0.005

# Compound: CC(=O)c1cnc2ccc(-c3cc(Cl)c(O)c(Cl)c3)nc2c1N[C@H]1CC[C@H](CN(C)C)CC1
# Test: as above
# Outline: as §1
row,Target,log2 fold change
1,XRCC5 (UniProt P13010),inactive: -0.002
2,ZC3H7B (UniProt Q9UGR2),inactive: 0.092
3,YLPM1 (UniProt P49750),inactive: -0.044
4,ZFAND6 (UniProt Q6FIF0),inactive: -0.015
5,ZGPAT (UniProt Q8N5A5),inactive: -0.114
6,ZC3H13 (UniProt Q5T200),inactive: 0.009
7,YES1 (UniProt P07947),inactive: -0.012
8,YOD1 (UniProt Q5VVQ6),inactive: -0.009
9,YDJC (UniProt A8MPS7),inactive: 0.023
10,ZDHHC18 (UniProt Q9NUE0),inactive: 0.057
11,ZBTB14 (UniProt O43829),inactive: -0.093
12,XRN1 (UniProt Q8IZH2),inactive: 0.024
13,ZEB2 (UniProt O60315),inactive: 0.137
14,XPR1 (UniProt Q9UBH6),inactive: 0.092
15,YJU2 (UniProt Q9BW85),inactive: 0
16,YME1L1 (UniProt Q96TA2),inactive: -0.008
17,YPEL5 (UniProt P62699),inactive: -0.038
18,ZC3H18 (UniProt E7ERS3),inactive: -0.02
19,ZFYVE16 (UniProt Q7Z3T8),inactive: 0.026

row,Target,log2 fold change
1,ZFAND5 (UniProt O76080),inactive: -0.132
2,ZER1 (UniProt Q7Z7L7),inactive: -0.058
3,ZC2HC1A (UniProt Q96GY0),inactive: -0.006
4,YTHDF2 (UniProt Q9Y5A9),inactive: 0.038
5,YARS2 (UniProt Q9Y2Z4),inactive: -0.006
6,XPO7 (UniProt Q9UIA9),inactive: -0.019
7,ZBTB33 (UniProt Q86T24),inactive: 0.183
8,XPO6 (UniProt Q96QU8),inactive: 0.018
9,YRDC (UniProt Q86U90),inactive: -0.002
10,YARS (UniProt P54577),inactive: 0.004
11,ZFPL1 (UniProt O95159),inactive: -0.179
12,ZC3HAV1 (UniProt Q7Z2W4),inactive: -0.013
13,YBX1 (UniProt P67809),inactive: -0.01
14,ZBTB21 (UniProt Q9ULJ3),inactive: 0.078
15,XYLB (UniProt O75191),inactive: -0.087
16,YTHDF1 (UniProt Q9BYJ9),inactive: 0.015
17,YIF1B (UniProt Q5BJH7),inactive: -0.055
18,ZFC3H1 (UniProt O60293),inactive: 0.021
19,XXYLT1 (UniProt Q8NBI6),inactive: 0.008

# Compound: CC(C)(C)Cn1c(N)nc2ccc(-c3[nH]c(C(C)(C)C)nc3-c3ccc(F)cc3)nc21 [ralimetinib]
# Test: as above
# Outline: as §1
row,Target,log2 fold change
1,XRCC5 (UniProt P13010),inactive: 0.001
2,ZC3H7B (UniProt Q9UGR2),inactive: 0.026
3,YLPM1 (UniProt P49750),inactive: -0.002
4,ZFAND6 (UniProt Q6FIF0),inactive: 0.017
5,ZGPAT (UniProt Q8N5A5),inactive: 0
6,ZC3H13 (UniProt Q5T200),inactive: -0.003
7,YES1 (UniProt P07947),inactive: -0.259
8,YOD1 (UniProt Q5VVQ6),inactive: 0.011
9,YDJC (UniProt A8MPS7),inactive: -0.015
10,ZDHHC18 (UniProt Q9NUE0),inactive: 0.093
11,ZBTB14 (UniProt O43829),inactive: -0.015
12,XRN1 (UniProt Q8IZH2),inactive: 0.03
13,ZEB2 (UniProt O60315),inactive: -0.009
14,XPR1 (UniProt Q9UBH6),inactive: 0.048
15,YJU2 (UniProt Q9BW85),inactive: -0.003
16,YME1L1 (UniProt Q96TA2),inactive: -0.006
17,YPEL5 (UniProt P62699),inactive: 0.018
18,ZC3H18 (UniProt E7ERS3),inactive: -0.025
19,ZFYVE16 (UniProt Q7Z3T8),inactive: 0.029

row,Target,log2 fold change
1,ZFAND5 (UniProt O76080),inactive: -0.04
2,ZER1 (UniProt Q7Z7L7),inactive: 0.088
3,ZC2HC1A (UniProt Q96GY0),inactive: 0.037
4,YTHDF2 (UniProt Q9Y5A9),inactive: -0.03
5,YARS2 (UniProt Q9Y2Z4),inactive: 0.032
6,XPO7 (UniProt Q9UIA9),inactive: 0
7,ZBTB33 (UniProt Q86T24),inactive: -0.058
8,XPO6 (UniProt Q96QU8),inactive: 0.006
9,YRDC (UniProt Q86U90),inactive: 0.025
10,YARS (UniProt P54577),inactive: 0.011
11,ZFPL1 (UniProt O95159),inactive: -0.054
12,ZC3HAV1 (UniProt Q7Z2W4),inactive: -0.011
13,YBX1 (UniProt P67809),inactive: -0.02
14,ZBTB21 (UniProt Q9ULJ3),inactive: 0.024
15,XYLB (UniProt O75191),inactive: 0.038
16,YTHDF1 (UniProt Q9BYJ9),inactive: 0.016
17,YIF1B (UniProt Q5BJH7),inactive: 0.012
18,ZFC3H1 (UniProt O60293),inactive: 0.011
19,XXYLT1 (UniProt Q8NBI6),inactive: -0.015
